In the experiment the target is GST-MUC1-CD(1-72) (human) (UniProt P15941). Put plainly: GST pull-down on glutathione beads, [35S]-labeled KLF4, autoradiography.

Sequences of proteins named here, by UniProt entry; tags and fusion partners are left off. A change or cut given only in a name is not applied to a line headed by its entry.
UniProt P15941: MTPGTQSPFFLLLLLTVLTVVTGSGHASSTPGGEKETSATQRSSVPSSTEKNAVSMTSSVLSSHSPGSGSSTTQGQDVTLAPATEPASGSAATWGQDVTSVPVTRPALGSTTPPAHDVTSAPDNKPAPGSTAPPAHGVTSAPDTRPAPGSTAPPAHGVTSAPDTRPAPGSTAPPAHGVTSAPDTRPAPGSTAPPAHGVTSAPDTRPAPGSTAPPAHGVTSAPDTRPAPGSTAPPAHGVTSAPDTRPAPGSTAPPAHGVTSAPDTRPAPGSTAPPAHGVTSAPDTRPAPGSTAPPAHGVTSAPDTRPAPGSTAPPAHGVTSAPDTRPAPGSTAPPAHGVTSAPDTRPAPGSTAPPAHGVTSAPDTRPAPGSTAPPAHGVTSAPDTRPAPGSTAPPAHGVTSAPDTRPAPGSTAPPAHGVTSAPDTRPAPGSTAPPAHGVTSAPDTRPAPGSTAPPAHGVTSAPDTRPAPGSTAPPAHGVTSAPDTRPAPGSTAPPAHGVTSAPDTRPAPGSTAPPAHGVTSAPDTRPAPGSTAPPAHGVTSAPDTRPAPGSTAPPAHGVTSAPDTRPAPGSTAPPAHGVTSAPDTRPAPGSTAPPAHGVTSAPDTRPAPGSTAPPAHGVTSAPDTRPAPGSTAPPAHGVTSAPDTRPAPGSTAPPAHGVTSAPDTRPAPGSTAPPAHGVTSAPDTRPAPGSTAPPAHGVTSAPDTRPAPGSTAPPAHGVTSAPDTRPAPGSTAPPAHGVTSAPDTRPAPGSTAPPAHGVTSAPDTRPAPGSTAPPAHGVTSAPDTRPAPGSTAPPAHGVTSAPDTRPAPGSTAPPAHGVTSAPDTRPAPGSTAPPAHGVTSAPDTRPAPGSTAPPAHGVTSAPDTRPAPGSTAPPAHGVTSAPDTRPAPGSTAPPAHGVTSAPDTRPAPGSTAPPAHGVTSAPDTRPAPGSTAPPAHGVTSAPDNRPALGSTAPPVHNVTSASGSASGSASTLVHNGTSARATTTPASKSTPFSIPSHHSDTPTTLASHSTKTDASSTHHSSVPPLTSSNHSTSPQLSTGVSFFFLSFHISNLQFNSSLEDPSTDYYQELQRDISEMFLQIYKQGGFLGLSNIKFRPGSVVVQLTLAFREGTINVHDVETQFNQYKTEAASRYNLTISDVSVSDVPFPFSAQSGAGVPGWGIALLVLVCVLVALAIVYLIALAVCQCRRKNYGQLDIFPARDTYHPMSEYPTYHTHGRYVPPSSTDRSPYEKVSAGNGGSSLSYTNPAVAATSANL
UniProt O43474: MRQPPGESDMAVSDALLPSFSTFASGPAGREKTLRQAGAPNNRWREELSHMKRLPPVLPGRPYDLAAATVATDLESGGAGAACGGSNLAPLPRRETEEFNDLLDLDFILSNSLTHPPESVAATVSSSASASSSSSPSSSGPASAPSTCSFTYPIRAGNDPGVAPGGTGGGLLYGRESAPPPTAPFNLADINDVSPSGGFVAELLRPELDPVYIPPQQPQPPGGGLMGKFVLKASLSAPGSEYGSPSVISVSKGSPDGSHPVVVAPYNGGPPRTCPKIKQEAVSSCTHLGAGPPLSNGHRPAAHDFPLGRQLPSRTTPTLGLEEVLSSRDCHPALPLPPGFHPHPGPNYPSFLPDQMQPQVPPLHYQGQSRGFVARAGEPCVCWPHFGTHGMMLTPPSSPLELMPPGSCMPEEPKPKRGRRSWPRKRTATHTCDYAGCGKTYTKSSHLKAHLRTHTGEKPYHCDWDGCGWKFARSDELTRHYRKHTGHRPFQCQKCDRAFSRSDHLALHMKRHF

These are yes or no findings as the source states them, for the method shown. Binding seen in cells or lysates may run through a third protein. Some binding calls cover weakened binding; strength is not graded here.

Regarding “[35S]-labeled KLF4 protein (from UniProt O43474 10-513)”, the binding result is “binds”.
